{"source": "patent US10168342B2", "about": "“Lipid probes and uses thereof” (THE SCRIPPS RESEARCH INSTITUTE, priority 2015, dated 2019)", "key": {"[1]": {"system": "sterol-binding proteins in HeLa cells", "test": "SILAC MS-based profiling of sterol-binding proteins in HeLa cells", "assay_type": "cell-based, human"}, "[2]": {"system": "lipid-binding proteins in HEK293T cells", "test": "SILAC MS mapping of lipid probe targets (probe-versus-No UV, probe-versus-probe) in HEK293T cells", "assay_type": "cell-based, human", "settings": "HEK293T and Neuro2a cells combined"}}}
{"smiles": "CC(C)CCC[C@@H](C)[C@H]1CC[C@H]2[C@@H]3CC=C4C[C@@H](O)CC[C@]4(C)[C@H]3CC[C@]12C", "note": "[cholesterol, reference compound]", "values": [{"measurement": "number of proteins with at least a 50% decrease in trans-sterol probe labeling intensity", "setting": "[1]; trans probe 10 μM, cholesterol 100 μM (10×)", "result": "about 300"}]}
{"smiles": "C#CCCC/C=C\\C/C=C\\C/C=C\\C/C=C\\CCCC(=O)NCCC1(C)N=N1", "note": "[A-DA, (5Z,8Z,11Z,14Z)-N-(2-(3-methyl-3H-diazirin-3-yl)ethyl)icosa-5,8,11,14-tetraen-19-ynamide]", "values": [{"measurement": "number of probe-specific targets", "setting": "[2]", "result": 317}]}
{"smiles": "C#CCCCC1(CC/C=C\\C/C=C\\C/C=C\\CCCC(=O)NCCO)N=N1", "note": "[AEA-DA, (5Z,8Z,11Z)-N-(2-hydroxyethyl)-14-(3-(pent-4-yn-1-yl)-3H-diazirin-3-yl)tetradeca-5,8,11-trienamide]", "values": [{"measurement": "number of probe-specific targets", "setting": "[2]", "result": 442}]}
{"smiles": "C#CCCCCOC(=O)CC[C@@H](C)[C@H]1CCC2C3CC4(N=N4)[C@H]4C[C@@H](O)CC[C@]4(C)C3CC[C@@]21C", "note": "(stereo partly drawn) [trans-sterol probe, (4R)-hex-5-yn-1-yl 4-((3S,5S,10R,13R,17R)-3-hydroxy-10,13-dimethyl-1,2,3,4,5,7,8,9,10,11,12,13,14,15,16,17-hexadecahydrospiro[cyclopenta[a]phenanthrene-6,3′-diazirin]-17-yl)pentanoate]", "values": [{"measurement": "number of proteins with ≥3-fold higher signals for trans-sterol probe over PEA-DA", "setting": "[1]; 20 μM each", "result": "about 700"}, {"measurement": "number of sterol-interacting proteins (SILAC ratios ≥5 vs vehicle and no-UV)", "setting": "[1]; probe 20 μM", "result": "About 850"}]}
